## Library screen at single concentrations

Protein sequences, listed by entry. Tags and fused reporters are not part of them. Residues count along the entry.
UniProt P9WPC5, whole entry: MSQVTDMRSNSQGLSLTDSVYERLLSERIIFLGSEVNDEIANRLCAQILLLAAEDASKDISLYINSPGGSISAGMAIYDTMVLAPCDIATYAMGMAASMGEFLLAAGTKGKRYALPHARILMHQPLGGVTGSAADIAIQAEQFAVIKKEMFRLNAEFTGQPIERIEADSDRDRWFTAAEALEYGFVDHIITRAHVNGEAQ
UniProt P9WPC3, whole entry partner: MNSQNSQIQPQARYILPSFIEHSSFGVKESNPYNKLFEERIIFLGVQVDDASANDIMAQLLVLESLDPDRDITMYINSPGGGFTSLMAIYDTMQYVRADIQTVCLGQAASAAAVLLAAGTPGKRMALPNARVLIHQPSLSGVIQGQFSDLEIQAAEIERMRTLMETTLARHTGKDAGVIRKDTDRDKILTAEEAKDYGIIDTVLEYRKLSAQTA
UniProt I6X8D2, whole entry: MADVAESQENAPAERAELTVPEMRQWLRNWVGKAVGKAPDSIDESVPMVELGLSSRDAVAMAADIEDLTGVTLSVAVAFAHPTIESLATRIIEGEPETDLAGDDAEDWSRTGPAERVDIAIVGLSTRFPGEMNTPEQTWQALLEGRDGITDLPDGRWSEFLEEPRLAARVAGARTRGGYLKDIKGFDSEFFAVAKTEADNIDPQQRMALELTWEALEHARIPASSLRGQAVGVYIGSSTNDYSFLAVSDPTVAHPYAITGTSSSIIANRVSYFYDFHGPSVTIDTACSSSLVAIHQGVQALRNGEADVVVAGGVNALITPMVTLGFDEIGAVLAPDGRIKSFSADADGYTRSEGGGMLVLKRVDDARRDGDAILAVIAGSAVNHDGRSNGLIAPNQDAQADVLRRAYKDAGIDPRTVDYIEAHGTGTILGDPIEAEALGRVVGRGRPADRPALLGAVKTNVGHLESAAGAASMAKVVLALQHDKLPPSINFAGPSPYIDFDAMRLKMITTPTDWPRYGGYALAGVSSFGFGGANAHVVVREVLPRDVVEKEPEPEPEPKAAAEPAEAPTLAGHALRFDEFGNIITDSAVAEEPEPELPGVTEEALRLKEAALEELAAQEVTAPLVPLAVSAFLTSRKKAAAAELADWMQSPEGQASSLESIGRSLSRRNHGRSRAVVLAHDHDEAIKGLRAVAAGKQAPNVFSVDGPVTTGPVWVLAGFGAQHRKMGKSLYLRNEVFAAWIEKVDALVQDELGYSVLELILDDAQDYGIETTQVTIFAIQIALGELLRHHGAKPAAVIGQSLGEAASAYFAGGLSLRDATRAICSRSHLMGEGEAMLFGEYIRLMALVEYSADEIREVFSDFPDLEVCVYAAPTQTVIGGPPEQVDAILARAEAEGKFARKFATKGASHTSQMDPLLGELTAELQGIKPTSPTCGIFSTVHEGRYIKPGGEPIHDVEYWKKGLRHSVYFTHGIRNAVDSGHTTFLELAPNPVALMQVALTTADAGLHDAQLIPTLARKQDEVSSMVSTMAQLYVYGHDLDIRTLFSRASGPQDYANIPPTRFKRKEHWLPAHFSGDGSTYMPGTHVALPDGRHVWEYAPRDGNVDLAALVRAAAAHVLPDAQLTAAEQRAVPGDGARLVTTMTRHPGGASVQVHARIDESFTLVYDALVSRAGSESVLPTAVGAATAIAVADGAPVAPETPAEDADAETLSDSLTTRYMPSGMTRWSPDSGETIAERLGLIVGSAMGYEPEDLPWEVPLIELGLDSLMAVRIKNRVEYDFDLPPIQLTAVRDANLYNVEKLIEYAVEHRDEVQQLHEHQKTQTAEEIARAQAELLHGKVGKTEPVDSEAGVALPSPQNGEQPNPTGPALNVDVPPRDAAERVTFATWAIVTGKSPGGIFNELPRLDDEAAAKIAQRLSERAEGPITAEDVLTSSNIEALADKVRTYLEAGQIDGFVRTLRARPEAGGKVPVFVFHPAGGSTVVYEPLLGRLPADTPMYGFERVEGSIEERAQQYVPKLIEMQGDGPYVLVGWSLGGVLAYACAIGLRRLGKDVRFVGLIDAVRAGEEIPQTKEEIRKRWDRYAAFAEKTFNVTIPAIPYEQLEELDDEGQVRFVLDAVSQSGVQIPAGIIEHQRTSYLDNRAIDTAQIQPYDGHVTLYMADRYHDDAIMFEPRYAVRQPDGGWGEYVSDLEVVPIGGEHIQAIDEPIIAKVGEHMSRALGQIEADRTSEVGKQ
UniProt Q8IDJ8, 1-583: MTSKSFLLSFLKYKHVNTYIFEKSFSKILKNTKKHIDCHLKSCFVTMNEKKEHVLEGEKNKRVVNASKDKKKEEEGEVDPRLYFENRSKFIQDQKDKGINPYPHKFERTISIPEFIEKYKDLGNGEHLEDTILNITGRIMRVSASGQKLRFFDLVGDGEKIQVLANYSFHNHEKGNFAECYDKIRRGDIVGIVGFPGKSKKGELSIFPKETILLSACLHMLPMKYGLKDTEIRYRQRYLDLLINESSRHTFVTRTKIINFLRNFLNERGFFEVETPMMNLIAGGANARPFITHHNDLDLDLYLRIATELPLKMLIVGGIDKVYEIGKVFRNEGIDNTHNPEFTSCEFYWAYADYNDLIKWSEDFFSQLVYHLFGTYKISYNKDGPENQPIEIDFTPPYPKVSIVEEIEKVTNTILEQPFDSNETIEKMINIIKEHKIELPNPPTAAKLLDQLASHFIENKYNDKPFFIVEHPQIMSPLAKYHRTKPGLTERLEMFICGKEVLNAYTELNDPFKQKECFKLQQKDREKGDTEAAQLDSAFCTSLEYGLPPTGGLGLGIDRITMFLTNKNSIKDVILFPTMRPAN

From ChEMBL document CHEMBL3988442, “University of Dundee, Small-Polar-MMV Screening Library” (2021).

Values are the deposited “Percent Effect”, in %.
How 0% and 100% were set is not recorded. Most values in the screen are low, and negative values occur.
Compounds were drawn at random from those tested, without regard to their results.
A dash means the value is not listed here; it may have been measured.

ClpP1P2: 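Protease assay of ClpP1P2, read by the AMC dye that it sets free. Target: ClpP1P2, Mycobacterium tuberculosis (UniProt P9WPC5 and UniProt P9WPC3). Tested at 50 µM. Higher reads as stronger inhibition, judged from the few compounds that gave an IC50. Most other retested compounds had strongly negative values. Size under these conditions: about 69,000 compounds, about 10 of them at 50% or above in at least one test.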
Leishmania in macrophages: 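Cell assay of Leishmania donovani living inside macrophages; the read-out is not stated. Concentration: 30 µM. Direction is inferred from retests: higher values go with stronger inhibition. Of about 69,000 compounds tested this way, about 1,000 (1.5%) reached 50% or more in at least one test.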
Pks13 thioesterase: 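Polyketide synthase Pks13, Mycobacterium tuberculosis (UniProt I6X8D2). Enzyme assay of the thioesterase domain of polyketide synthase 13; the read-out is not stated. Compounds at 30 µM. The record gives no direction; the compounds picked for IC50 retests had high values, so higher reads as stronger inhibition. Size under these conditions: about 67,000 compounds, about 300 of them at 50% or above in at least one test.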
PfKRS1: 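Enzyme assay of the cytosolic lysyl-tRNA synthetase in 384-well plates, read by luminescence. Target: Lysine-tRNA ligase, Plasmodium falciparum 3D7 (UniProt Q8IDJ8). Tested at 30 µM. Direction is inferred from only a few compounds that gave an IC50; most scored high, so higher reads as stronger inhibition. About 69,000 compounds were tested under these conditions; 0.071% (about 49) showed 50% or more at least once.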
Toxoplasma: 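Assay of Toxoplasma gondii numbers, read through their beta-galactosidase reporter with a colour substrate. Compounds at 10 µM. Higher reads as fewer parasites (inferred from which compounds were picked for retests). About 67,000 compounds were tested under these conditions; 0.38% (about 260) showed 50% or more at least once.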

- CSCCCNC(=O)c1coc(Cn2cnc3ccccc32)n1 : ClpP1P2: -3.401%; Leishmania in macrophages: 26.17%; Pks13 thioesterase: -3.041%; PfKRS1: 1.208%; Toxoplasma: -3.226%
- CCc1c(C)nc2n(c1=O)CC(C(=O)Nc1nc3c(s1)CCCC3)CS2 (centres undefined) : ClpP1P2: -10.01%; Leishmania in macrophages: 5.818%; Pks13 thioesterase: -23.71%; PfKRS1: 4.161%; Toxoplasma: -4.545%
- Cn1cccc1C(=O)NCc1cn2c(n1)CN(CC1CCOC1)CC2 (centres undefined) : ClpP1P2: 3.91%; Leishmania in macrophages: 22.42%; Pks13 thioesterase: -35.69%; PfKRS1: -1.7%; Toxoplasma: -8.095%
- Cn1ncc2c(=O)[nH]c(CN3CCCc4cc(F)ccc43)nc21 : ClpP1P2: 7.914%; Leishmania in macrophages: 24.33%; Pks13 thioesterase: -41.31%; PfKRS1: 5.27%; Toxoplasma: -0.1082%
- CCN(Cc1noc(CC(C)C)n1)Cc1cccc(F)c1O : ClpP1P2: -3.875%; Leishmania in macrophages: -9.743%; Pks13 thioesterase: 20.19%; PfKRS1: 1.841%; Toxoplasma: -10.46%
- CN(C)C(C)(C)CNCc1c[nH]nc1-c1cc2ccccc2o1 : ClpP1P2: -0.3802%; Leishmania in macrophages: 24.71%; Pks13 thioesterase: -8.909%; PfKRS1: 5.545%; Toxoplasma: 13.51%
- CC(C)(C)SCC(=O)NC(C)(C(N)=O)c1cccc(Cl)c1 (centres undefined) : ClpP1P2: -8.241%; Leishmania in macrophages: 5.151%; Pks13 thioesterase: 6.192%; PfKRS1: 1.009%; Toxoplasma: -8.567%
- CCN1C(=O)CCC12CCCN(S(=O)(=O)c1cccc(C)c1)CC2 (centres undefined) : ClpP1P2: -4.393%; Leishmania in macrophages: -3.339%; Pks13 thioesterase: -34.94%; PfKRS1: 9.292%; Toxoplasma: -16.21%
- Cc1cnc(N2CCC3(CC(=O)N(Cc4csc(C)n4)C3)C2)nc1 (centres undefined) : ClpP1P2: 0.01319%; Pks13 thioesterase: 10.69%; PfKRS1: 5.436%
- O=C1CC(N(C(=O)c2ccc(F)c(C(F)(F)F)c2)C2CC2)C(=O)N1 (centres undefined) : ClpP1P2: -10.29%; Leishmania in macrophages: 10.6%; Pks13 thioesterase: -3.009%; PfKRS1: -0.2894%; Toxoplasma: 7.156%
- COc1ncccc1CN1CCC2(CC1)COCCN2C : ClpP1P2: -1.116%; Pks13 thioesterase: -14.16%; PfKRS1: 3.481%
- CC(C)NC(=O)c1ccc2c(c1)C(c1nc[nH]n1)CN2S(C)(=O)=O (centres undefined) : ClpP1P2: 8.719%; Leishmania in macrophages: 1.444%; Pks13 thioesterase: -22.11%; PfKRS1: 5.57%; Toxoplasma: 4.39%
- CSc1ccc(CCN2CCN([C@H]3CCCC[C@@H]3O)CC2)cc1 : ClpP1P2: -17.76%; Leishmania in macrophages: -12.88%; Pks13 thioesterase: -6.392%; PfKRS1: 3.028%; Toxoplasma: 12.75%
- COc1ccc(NC(=O)N2CCC(CSC)C2)cc1C (centres undefined) : ClpP1P2: -6.722%; Leishmania in macrophages: -5.708%; Pks13 thioesterase: -10.87%; PfKRS1: 1.802%; Toxoplasma: 10.74%
- CCn1ccnc1C1CCN(C(=O)Nc2ccc(OC)cc2)CC1 : ClpP1P2: -9.168%; Leishmania in macrophages: 14.83%; Pks13 thioesterase: -7.43%; PfKRS1: 3.562%; Toxoplasma: 5.85%
- COc1cccc(Nc2nc(C3CCCNC3)c3sc(C)c(C)n23)c1.Cl (centres undefined) : Leishmania in macrophages: 20.11%; Toxoplasma: 2.595%

Some entries from above, unchanged:

SMILES,ClpP1P2,Leishmania in macrophages,Pks13 thioesterase,PfKRS1,Toxoplasma
CCN(Cc1noc(CC(C)C)n1)Cc1cccc(F)c1O,-3.875,-9.743,20.19,1.841,-10.46
COc1cccc(Nc2nc(C3CCCNC3)c3sc(C)c(C)n23)c1.Cl (centres undefined),-,20.11,-,-,2.595